{"source": "PubChem BioAssay AID1117269 (University of Michigan, 2014)", "test": "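Kinome-wide knockdown screen for regulators of TGF-beta reporter output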 (primary screen)", "cell system": "human A549 lung cancer and 1833 breast cancer (MDA-MB-231-derived) cell lines carrying a stable BTR luciferase reporter", "reagent": "siRNA pool against human genes", "time to read-out": "72 h after transfection, then 1 h TGF-beta before the read", "challenge": "TGF-beta 10 ng/mL added one hour before luciferin and read-out", "detection": "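BTR reporter bioluminescence as fold change relative to non-targeting siRNA, averaging triplicates per line; knockdown for 72 h, then TGF-beta at 10 ng/mL 1 h prior to reading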", "direction": "fold over scrambled siRNA, A549 and fold over scrambled siRNA, 1833: higher = more reporter light, weaker TGF-beta receptor signalling", "hit rule": "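Hit in either line counts as active; per-line hits lie above an upper limit from quartiles of averaged log fold values, in plate and screen-wide analyses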", "meaning of the calls": "active = hit in at least one line; inactive = hit in neither line", "note": "Shown is one part, drawn at random, of 714 reagents. Of all reagents, 49 (6.9%) were called active. 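Active means a hit in at least one line; per-line hit columns show which; some siRNA pools appear more than once.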 Not stated in the record: the amount of reagent."}
{"Target gene": "RFK (GeneID 55312)", "fold over scrambled siRNA, A549": 3.2, "fold over scrambled siRNA, 1833": 3.13, "hit in A549": "not a hit in A549", "hit in 1833": "not a hit in 1833", "activity call": "inactive"}
{"Target gene": "CLK3 (GeneID 1198)", "fold over scrambled siRNA, A549": 2.4, "fold over scrambled siRNA, 1833": 2.44, "hit in A549": "not a hit in A549", "hit in 1833": "not a hit in 1833", "activity call": "inactive"}
{"Target gene": "PIM2 (GeneID 11040)", "fold over scrambled siRNA, A549": 3.33, "fold over scrambled siRNA, 1833": 6.12, "hit in A549": "not a hit in A549", "hit in 1833": "not a hit in 1833", "activity call": "inactive"}
{"Target gene": "GUCY2F (GeneID 2986)", "fold over scrambled siRNA, A549": 2.05, "fold over scrambled siRNA, 1833": 2.14, "hit in A549": "not a hit in A549", "hit in 1833": "not a hit in 1833", "activity call": "inactive"}
{"Target gene": "GRK6 (GeneID 2870)", "fold over scrambled siRNA, A549": 3.14, "fold over scrambled siRNA, 1833": 6.59, "hit in A549": "not a hit in A549", "hit in 1833": "not a hit in 1833", "activity call": "inactive"}
{"Target gene": "MAP3K14 (GeneID 9020)", "fold over scrambled siRNA, A549": 3.62, "fold over scrambled siRNA, 1833": 7, "hit in A549": "not a hit in A549", "hit in 1833": "not a hit in 1833", "activity call": "inactive"}
{"Target gene": "EPHB6 (GeneID 2051)", "fold over scrambled siRNA, A549": 1.54, "fold over scrambled siRNA, 1833": 11.5, "hit in A549": "not a hit in A549", "hit in 1833": "hit in 1833"}

Reformatted: entries from further up.
Target gene | fold over scrambled siRNA, A549 | fold over scrambled siRNA, 1833 | hit in A549 | hit in 1833 | activity call
RFK (GeneID 55312) | 3.2 | 3.13 | not a hit in A549 | not a hit in 1833 | inactive
CLK3 (GeneID 1198) | 2.4 | 2.44 | not a hit in A549 | not a hit in 1833 | inactive

The results go on.
{"Target gene": "EIF2AK4 (GeneID 440275)", "fold over scrambled siRNA, A549": 4.09, "fold over scrambled siRNA, 1833": 4.67, "hit in A549": "not a hit in A549", "hit in 1833": "not a hit in 1833", "activity call": "inactive"}
{"Target gene": "CAMKK2 (GeneID 10645)", "fold over scrambled siRNA, A549": 2.05, "fold over scrambled siRNA, 1833": 4, "hit in A549": "not a hit in A549", "hit in 1833": "not a hit in 1833", "activity call": "inactive"}
{"Target gene": "ROCK2 (GeneID 9475)", "fold over scrambled siRNA, A549": 4.83, "fold over scrambled siRNA, 1833": 0.852, "hit in A549": "not a hit in A549", "hit in 1833": "not a hit in 1833", "activity call": "inactive"}
{"Target gene": "PIP4K2B (GeneID 8396)", "fold over scrambled siRNA, A549": 2.43, "fold over scrambled siRNA, 1833": 3.51, "hit in A549": "not a hit in A549", "hit in 1833": "not a hit in 1833", "activity call": "inactive"}
{"Target gene": "MAPK6 (GeneID 5597)", "fold over scrambled siRNA, A549": 2.37, "fold over scrambled siRNA, 1833": 2.67, "hit in A549": "not a hit in A549", "hit in 1833": "not a hit in 1833", "activity call": "inactive"}
{"Target gene": "CLK1 (GeneID 1195)", "fold over scrambled siRNA, A549": 1.63, "fold over scrambled siRNA, 1833": 2.33, "hit in A549": "not a hit in A549", "hit in 1833": "not a hit in 1833", "activity call": "inactive"}
{"Target gene": "ACVR1B (GeneID 91)", "fold over scrambled siRNA, A549": 2.01, "fold over scrambled siRNA, 1833": 1.93, "hit in A549": "not a hit in A549", "hit in 1833": "not a hit in 1833", "activity call": "inactive"}
